No constants are given. Whether binding was seen depends on the method and setting. In cells and extracts the contact can be indirect. Here binding means that the protein was enriched with, or labelled near, the bait; the list need not be complete. Sequences can lack the tags named with a protein.
Target: T1, SFB-SGT1 (triple-tagged SGT1, wild type), in HEK293T (human) (UniProt Q9Y2Z0)
T1 sequence: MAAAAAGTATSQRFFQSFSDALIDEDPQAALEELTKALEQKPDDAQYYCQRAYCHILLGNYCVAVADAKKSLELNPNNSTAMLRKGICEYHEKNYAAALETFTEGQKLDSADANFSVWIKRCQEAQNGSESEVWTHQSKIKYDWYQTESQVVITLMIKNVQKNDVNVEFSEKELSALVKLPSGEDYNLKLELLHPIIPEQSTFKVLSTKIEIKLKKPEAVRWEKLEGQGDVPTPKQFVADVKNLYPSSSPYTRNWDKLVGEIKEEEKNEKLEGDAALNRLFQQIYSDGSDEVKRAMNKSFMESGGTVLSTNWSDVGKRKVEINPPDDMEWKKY
Assay: affinity purification with mass spectrometry; 293T cells expressing SFB-SGT1; NETN lysate; streptavidin-Sepharose, biotin elution, S-protein-agarose; SDS-PAGE and mass spectrometry

B1: RNF41 (ring finger protein 41), endogenous in 293T (enzyme, UniProt Q9H4P4 1-317)
chain: MGYDVTRFQGDVDEDLICPICSGVLEEPVQAPHCEHAFCNACITQWFSQQQTCPVDRSVVTVAHLRPVPRIMRNMLSKLQIACDNAVFGCSAVVRLDNLMSHLSDCEHNPKRPVTCEQGCGLEMPKDELPNHNCIKHLRSVVQQQQTRIAELEKTSAEHKHQLAEQKRDIQLLKAYMRAIRSVNPNLQNLEETIEYNEILEWVNSLQPARVTRWGGMISTPDAVLQAVIKRSLVESGCPASIVNELIENAHERSWPQGLATLETRQMNRRYYENYVAKRIPGKQAVVVMACENQHMGDDMVQEPGLVMIFAHGVEEI
For B1, the binding was “binds”.

Reference: article PMC5572923
